Article PMC5171658
Results are given in words; binding and its absence hold for the method and conditions named. Sequences can lack the tags named with a protein.

Target: T1, PHYTOCHROME … FACTOR4 (PIF4), yeast two-hybrid fusion (Arabidopsis thaliana) (UniProt Q8W2F3)
T1 sequence: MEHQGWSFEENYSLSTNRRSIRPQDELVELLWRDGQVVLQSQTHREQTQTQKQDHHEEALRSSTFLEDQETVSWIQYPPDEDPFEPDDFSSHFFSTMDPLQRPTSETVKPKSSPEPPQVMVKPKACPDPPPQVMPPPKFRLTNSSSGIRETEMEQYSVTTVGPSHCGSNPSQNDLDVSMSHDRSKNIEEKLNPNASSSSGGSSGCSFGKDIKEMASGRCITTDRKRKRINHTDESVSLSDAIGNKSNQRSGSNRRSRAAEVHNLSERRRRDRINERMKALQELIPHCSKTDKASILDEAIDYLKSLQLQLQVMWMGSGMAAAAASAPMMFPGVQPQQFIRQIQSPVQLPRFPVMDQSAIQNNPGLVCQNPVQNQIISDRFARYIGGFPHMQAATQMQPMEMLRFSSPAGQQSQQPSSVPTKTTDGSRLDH
Assay: two-hybrid; yeast AH109 co-transformed with pGADT7 and pGBKT7 constructs; growth on synthetic dropout medium without histidine with 1 or 5 mM 3-amino-1,2,4-triazole

| binding | Substance |
| --- | --- |
| no binding | PRR3, yeast two-hybrid fusion (Arabidopsis thaliana) |
| no binding | PRR9, yeast two-hybrid fusion (Arabidopsis thaliana) |
| no binding | PRR7, yeast two-hybrid fusion (Arabidopsis thaliana) |
